The values below come from the supplement of paper PMC11006884.

Chains of the proteins cited; added tags and fusions are not shown. Lines headed by an entry give the natural chain unless they say otherwise; changes in a name come on top.
UniProt Q9C0C2: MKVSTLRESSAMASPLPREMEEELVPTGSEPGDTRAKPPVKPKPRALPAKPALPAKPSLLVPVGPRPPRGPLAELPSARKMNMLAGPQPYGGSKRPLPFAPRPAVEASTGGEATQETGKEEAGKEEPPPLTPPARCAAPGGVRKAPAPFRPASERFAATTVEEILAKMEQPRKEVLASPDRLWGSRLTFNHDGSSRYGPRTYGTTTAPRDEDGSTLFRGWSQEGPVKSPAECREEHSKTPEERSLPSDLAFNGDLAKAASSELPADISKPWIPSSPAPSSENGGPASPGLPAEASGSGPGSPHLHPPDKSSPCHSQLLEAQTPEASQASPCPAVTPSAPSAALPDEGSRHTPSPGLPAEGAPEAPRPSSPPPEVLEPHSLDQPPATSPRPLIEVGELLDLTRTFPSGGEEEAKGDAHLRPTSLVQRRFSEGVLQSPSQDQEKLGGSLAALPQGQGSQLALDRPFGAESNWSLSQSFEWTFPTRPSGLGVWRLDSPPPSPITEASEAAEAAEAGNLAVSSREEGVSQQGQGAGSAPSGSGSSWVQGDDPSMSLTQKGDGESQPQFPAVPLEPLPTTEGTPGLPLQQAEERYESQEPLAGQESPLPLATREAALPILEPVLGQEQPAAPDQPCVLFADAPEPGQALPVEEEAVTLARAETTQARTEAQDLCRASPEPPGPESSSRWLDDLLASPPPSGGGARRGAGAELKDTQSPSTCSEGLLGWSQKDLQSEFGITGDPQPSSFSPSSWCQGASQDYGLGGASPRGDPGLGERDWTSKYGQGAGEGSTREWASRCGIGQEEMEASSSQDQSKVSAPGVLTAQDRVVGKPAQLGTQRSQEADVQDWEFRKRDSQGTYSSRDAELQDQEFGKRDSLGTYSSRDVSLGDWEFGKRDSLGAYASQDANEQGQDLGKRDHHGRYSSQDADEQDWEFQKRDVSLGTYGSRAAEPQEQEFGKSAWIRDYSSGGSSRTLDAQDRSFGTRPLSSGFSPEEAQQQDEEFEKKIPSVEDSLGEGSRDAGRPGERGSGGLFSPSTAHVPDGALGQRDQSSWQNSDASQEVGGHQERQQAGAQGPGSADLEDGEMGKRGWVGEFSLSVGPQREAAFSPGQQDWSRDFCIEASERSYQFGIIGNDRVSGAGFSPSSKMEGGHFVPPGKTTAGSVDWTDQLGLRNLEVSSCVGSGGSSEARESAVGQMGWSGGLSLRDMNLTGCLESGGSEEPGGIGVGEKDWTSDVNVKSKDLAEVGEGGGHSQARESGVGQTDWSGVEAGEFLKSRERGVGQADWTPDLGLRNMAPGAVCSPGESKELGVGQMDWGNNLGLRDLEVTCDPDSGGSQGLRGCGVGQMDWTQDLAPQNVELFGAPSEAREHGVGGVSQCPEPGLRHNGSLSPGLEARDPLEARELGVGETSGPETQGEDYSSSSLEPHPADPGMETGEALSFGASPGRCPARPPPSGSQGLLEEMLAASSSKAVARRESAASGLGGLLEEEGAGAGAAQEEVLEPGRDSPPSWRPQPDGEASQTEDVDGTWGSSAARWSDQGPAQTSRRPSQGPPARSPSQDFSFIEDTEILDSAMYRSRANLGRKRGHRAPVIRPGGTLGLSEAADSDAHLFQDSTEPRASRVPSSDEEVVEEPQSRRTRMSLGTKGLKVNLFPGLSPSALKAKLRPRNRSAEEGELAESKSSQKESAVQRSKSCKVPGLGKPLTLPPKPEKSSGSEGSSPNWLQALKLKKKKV
UniProt Q9H2U1: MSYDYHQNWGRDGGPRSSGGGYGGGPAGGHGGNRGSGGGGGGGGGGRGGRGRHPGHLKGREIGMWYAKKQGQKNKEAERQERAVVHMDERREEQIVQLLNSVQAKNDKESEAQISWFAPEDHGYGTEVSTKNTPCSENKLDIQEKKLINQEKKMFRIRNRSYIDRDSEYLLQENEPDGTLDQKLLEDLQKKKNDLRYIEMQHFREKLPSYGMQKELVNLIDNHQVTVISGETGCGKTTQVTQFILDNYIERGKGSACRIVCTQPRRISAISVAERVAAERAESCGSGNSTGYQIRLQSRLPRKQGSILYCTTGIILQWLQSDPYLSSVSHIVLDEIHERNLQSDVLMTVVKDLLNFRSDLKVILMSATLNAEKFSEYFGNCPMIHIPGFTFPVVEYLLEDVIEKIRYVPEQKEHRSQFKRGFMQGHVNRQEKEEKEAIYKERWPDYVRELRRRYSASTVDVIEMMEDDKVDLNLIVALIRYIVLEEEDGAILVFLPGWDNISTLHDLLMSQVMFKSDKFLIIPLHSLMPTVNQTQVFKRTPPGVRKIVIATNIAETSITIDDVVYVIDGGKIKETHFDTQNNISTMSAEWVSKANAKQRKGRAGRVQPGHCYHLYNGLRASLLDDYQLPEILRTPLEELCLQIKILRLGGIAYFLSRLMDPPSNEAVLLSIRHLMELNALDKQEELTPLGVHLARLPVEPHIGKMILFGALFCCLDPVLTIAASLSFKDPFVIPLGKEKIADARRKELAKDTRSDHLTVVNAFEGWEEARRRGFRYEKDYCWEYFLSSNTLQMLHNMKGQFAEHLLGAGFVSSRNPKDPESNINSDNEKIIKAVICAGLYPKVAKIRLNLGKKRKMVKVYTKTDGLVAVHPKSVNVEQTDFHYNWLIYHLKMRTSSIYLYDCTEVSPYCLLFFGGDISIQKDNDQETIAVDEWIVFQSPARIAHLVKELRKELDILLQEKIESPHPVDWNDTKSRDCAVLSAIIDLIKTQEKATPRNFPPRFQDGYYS
UniProt Q9BTT0: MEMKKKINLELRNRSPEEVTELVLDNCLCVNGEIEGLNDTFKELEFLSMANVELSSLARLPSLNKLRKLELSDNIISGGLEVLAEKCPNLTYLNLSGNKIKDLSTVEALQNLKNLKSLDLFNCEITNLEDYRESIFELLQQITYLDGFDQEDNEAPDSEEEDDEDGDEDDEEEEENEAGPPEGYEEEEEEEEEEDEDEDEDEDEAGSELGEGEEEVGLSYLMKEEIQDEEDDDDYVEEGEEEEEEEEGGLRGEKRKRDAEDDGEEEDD
UniProt Q9H1B7, whole entry, looked up: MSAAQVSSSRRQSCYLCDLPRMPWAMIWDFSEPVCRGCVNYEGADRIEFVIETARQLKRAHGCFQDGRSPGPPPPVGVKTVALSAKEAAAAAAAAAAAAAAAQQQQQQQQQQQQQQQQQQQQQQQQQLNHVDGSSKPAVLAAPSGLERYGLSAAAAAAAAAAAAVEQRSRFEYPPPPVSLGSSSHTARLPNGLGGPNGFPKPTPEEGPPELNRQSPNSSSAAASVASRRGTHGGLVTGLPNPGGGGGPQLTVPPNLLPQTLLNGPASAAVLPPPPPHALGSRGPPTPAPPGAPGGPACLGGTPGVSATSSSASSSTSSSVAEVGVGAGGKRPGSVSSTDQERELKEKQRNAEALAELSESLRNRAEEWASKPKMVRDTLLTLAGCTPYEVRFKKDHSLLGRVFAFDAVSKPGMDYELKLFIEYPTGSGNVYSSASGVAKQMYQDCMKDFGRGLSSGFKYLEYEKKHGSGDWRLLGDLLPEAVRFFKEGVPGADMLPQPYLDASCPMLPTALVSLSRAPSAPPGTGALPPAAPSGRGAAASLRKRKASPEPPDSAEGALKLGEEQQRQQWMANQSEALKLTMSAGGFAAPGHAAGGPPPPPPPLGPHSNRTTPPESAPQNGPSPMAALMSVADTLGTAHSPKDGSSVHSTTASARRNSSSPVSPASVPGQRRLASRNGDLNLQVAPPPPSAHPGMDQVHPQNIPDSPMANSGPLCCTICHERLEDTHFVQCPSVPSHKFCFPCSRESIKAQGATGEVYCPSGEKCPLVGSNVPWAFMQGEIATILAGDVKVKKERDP
UniProt Q9BY77: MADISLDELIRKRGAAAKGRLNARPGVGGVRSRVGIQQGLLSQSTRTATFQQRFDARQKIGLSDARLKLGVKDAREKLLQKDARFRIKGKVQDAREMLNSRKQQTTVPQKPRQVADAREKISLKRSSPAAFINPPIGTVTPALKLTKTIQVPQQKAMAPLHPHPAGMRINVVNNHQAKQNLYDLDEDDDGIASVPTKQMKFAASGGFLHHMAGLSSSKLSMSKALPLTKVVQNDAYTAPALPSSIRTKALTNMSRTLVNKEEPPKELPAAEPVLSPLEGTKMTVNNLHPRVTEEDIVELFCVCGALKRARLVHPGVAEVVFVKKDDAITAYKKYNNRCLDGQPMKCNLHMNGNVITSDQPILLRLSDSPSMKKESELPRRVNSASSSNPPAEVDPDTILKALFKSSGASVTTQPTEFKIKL
UniProt Q9BSH5: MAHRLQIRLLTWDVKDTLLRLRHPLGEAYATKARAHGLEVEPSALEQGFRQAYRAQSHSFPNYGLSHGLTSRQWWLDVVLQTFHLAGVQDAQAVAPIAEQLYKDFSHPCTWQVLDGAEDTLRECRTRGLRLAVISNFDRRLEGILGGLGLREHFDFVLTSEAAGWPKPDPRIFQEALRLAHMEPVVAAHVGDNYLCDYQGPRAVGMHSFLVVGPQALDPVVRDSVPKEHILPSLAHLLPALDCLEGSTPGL
UniProt Q9H1K1: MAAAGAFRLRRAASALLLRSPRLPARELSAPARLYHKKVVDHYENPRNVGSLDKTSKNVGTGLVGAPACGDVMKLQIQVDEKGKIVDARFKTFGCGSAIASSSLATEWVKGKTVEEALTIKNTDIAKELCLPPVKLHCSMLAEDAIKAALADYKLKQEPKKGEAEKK
UniProt Q9GZR7: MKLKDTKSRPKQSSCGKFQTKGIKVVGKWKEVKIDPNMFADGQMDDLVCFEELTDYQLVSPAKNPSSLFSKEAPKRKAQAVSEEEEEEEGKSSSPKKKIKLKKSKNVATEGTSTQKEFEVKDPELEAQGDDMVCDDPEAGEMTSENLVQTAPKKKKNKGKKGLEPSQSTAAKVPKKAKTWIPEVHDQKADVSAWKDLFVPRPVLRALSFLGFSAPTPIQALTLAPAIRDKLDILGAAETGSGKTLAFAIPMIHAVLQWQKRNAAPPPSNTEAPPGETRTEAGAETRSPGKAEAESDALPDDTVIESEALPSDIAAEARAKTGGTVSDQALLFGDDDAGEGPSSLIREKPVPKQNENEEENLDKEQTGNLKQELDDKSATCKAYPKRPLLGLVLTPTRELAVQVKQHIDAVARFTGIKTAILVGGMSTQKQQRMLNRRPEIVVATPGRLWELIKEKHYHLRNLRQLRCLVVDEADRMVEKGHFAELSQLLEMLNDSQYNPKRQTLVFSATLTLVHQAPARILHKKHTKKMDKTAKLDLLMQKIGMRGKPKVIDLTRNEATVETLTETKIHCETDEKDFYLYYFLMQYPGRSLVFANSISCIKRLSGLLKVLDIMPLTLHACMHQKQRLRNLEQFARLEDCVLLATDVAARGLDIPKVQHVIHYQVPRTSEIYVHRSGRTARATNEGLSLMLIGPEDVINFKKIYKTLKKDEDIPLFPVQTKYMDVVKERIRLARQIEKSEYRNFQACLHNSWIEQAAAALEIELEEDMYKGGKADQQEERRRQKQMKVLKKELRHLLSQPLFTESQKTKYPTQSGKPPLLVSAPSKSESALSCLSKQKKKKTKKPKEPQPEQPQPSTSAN
UniProt Q9C0B7: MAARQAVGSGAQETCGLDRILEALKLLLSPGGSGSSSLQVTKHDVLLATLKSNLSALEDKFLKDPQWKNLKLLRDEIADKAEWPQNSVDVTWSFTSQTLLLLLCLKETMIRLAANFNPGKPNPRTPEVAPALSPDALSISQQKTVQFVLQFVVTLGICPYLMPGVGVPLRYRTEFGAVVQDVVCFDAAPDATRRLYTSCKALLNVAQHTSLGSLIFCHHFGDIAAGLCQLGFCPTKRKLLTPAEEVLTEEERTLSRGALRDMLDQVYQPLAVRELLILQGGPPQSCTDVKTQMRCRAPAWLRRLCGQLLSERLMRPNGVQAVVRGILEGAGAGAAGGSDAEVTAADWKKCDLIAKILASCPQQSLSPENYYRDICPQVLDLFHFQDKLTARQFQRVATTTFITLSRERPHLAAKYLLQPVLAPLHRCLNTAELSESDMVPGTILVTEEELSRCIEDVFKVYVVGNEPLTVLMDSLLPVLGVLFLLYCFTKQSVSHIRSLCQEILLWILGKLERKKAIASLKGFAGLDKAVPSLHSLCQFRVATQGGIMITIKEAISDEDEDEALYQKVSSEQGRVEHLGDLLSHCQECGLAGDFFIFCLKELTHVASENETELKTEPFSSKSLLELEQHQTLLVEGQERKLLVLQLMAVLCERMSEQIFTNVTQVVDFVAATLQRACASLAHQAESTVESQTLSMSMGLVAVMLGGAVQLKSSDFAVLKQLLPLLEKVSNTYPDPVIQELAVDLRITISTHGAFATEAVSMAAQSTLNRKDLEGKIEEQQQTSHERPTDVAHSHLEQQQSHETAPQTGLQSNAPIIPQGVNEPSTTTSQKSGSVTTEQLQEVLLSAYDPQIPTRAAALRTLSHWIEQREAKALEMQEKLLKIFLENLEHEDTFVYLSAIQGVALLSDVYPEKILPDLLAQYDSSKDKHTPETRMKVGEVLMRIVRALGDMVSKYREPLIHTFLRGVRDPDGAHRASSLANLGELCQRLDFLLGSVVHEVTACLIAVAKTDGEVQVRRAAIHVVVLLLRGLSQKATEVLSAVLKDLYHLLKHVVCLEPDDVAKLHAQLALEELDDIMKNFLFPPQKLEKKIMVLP

The targets with a hit were mostly taken out for another list; the other results follow. The data scatter; read single values as rough. The entries are a selection whose mix differs from that of the whole data set.

Compound in this assay: COC(=O)/C=C/c1ccccc1 [methyl cinnamate]
Kind of assay: log2 ratio of iodoacetamide-alkyne labeling of the cysteine site, DMSO over compound (competition); higher = stronger covalent engagement of the cysteine by the compound, active = 1 or more. The following applies: 500 µM; treatment time 1 h; system: HEK293T cell lysate. In a few lines:
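Three replicates, each with duplicate channels, were prepared from HEK293T lysate (2 mg/mL) treated with vehicle or electrophile at 500 µM for 1 h at ambient temperature. Iodoacetamide alkyne was then applied for 1 h, and samples were clicked to sCIP-TMT reagents, pooled, trypsin-digested overnight at 37 °C, enriched on streptavidin, acid-eluted and analysed on Orbitrap Eclipse LC-MS/MS with FAIMS, with FragPipe quantification. The log2 competition ratio per cysteine is the mean control-channel divided by the mean compound-channel reporter intensity. Cysteines quantified in only one replicate were left out.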
Regarding ANAPC1 C729 (UniProt Q9H1A4), the “log2 ratio of iodoacetamide-alkyne labeling” value (“log2 ratio” for short) was inactive: -0.0284. The figure for SLK C358 (UniProt Q9H2G2) is inactive: 0.308; for TNKS1BP1 C1337 (UniProt Q9C0C2) it is inactive: 0.181. As for DHX36 C234 (UniProt Q9H2U1), the “log2 ratio” value was inactive: -0.0698. The figure for ANP32E C123 (UniProt Q9BTT0) is inactive: 0.324. Take SLK C1212 (UniProt Q9H2G2): the “log2 ratio” value was inactive: 0.35. UniProt Q9BTY7_C199: the “log2 ratio” value was inactive: -0.167. With UniProt Q9H1B7_C35, the “log2 ratio” value was inactive: -0.0086. Take RPAP1 C195 (UniProt Q9BWH6): the “log2 ratio” value is inactive: -0.0722.

With UBE2O C585 (UniProt Q9C0C9), the “log2 ratio” value was inactive: -0.169. As for UniProt Q9BTE3_C108, the “log2 ratio” value was inactive: 0.197. UniProt Q9BTE3_C3: the “log2 ratio” value was inactive: -0.0651. For the target UniProt Q9GZU8_C44, the “log2 ratio” value is inactive: 0.377. To UniProt Q9BWW4_C80 belongs inactive: -0.111; to MRPL1 C279 (UniProt Q9BYD6), inactive: 0.106; to MRPL37 C268 (UniProt Q9BZE1), inactive: 0.153. Take UBXN6 C210 (UniProt Q9BZV1): the “log2 ratio” value is inactive: -0.348.

Turning to ASPSCR1 C225 (UniProt Q9BZE9), the “log2 ratio” value was inactive: 0.321. Regarding POLDIP3 C338 (UniProt Q9BY77), the “log2 ratio” value is inactive: 0.147. To UACA C994 (UniProt Q9BZF9) belongs inactive: 0.118; to WDR18 C384 (UniProt Q9BV38), inactive: 0.288; to NAT10 C486 (UniProt Q9H0A0), inactive: -0.182. To UniProt Q9BXP5_C479 belongs inactive: 0.0362. To HDHD3 C109 (UniProt Q9BSH5) belongs inactive: 0.0497. Turning to UniProt Q9H1B7_C385, the “log2 ratio” value was inactive: 0.0618. SETD2 C1086 (UniProt Q9BYW2): the “log2 ratio” value was inactive: 0.305. The figure for ISCU C95 (UniProt Q9H1K1) is inactive: 0.222; for ACAT2 C92 (UniProt Q9BWD1) it is inactive: -0.0227. For the target DDX24 C49 (UniProt Q9GZR7), the “log2 ratio” value was inactive: 0.378. For UniProt Q9C0B7_C360, the “log2 ratio” value was inactive: 0.381. For PRKD2 C217 (UniProt Q9BZL6), the “log2 ratio” value is inactive: 0.31. Regarding SLC4A1AP C730 (UniProt Q9BWU0), the “log2 ratio” value is inactive: 0.47. As to TNKS1BP1 C1114 (UniProt Q9C0C2), the “log2 ratio” value is inactive: 0.0273. Take WDR11 C411 (UniProt Q9BZH6): the “log2 ratio” value is inactive: 0.286. Regarding QRSL1 C512 (UniProt Q9H0R6), the “log2 ratio” value is inactive: -0.199. On to NAT10 C489 (UniProt Q9H0A0), for which the “log2 ratio” value is inactive: -0.182.

Take PAIP1 C222 (UniProt Q9H074): the “log2 ratio” value was inactive: 0.459.
